# In the supplement of paper PMC4604168 (melanoma cell lines):
# Some of the results follow. Many values rest on one well or one pass, so single values are uncertain.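 The apoptosis fraction was the count of cleaved-PARP antibody-stained nuclei relative to all DNA-stained nuclei, imaged in 1,536-well plates. Screening doses were set so most cells survived, and baseline and induced cleaved-PARP levels vary greatly across cell lines.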
# What was measured:
# Experiment in all cases: cleaved PARP positive nuclei fraction relative to DMSO control; melanoma cells; higher = more apoptosis
# Conditions in all cases: library dose: low library concentration; 72 h
# CBRC034 = system: CBRC034 (line from a melanoma biopsy)
# COLO792 = system: COLO792
# COLO800 = system: COLO800
# COLO829 = system: COLO829
# G361 = system: G361
# IPC-298 = system: IPC-298
# IST-MEL1 = system: IST-MEL1
# LB2518-MEL = system: LB2518-MEL
# LOXIMVI = system: LOXIMVI
# MEL-HO = system: MEL-HO
Compound,cleaved PARP positive nuclei fraction (CBRC034) [%],cleaved PARP positive nuclei fraction (COLO792) [%],cleaved PARP positive nuclei fraction (COLO800) [%],cleaved PARP positive nuclei fraction (COLO829) [%],cleaved PARP positive nuclei fraction (G361) [%],cleaved PARP positive nuclei fraction (IPC-298) [%],cleaved PARP positive nuclei fraction (IST-MEL1) [%],cleaved PARP positive nuclei fraction (LB2518-MEL) [%],cleaved PARP positive nuclei fraction (LOXIMVI) [%],cleaved PARP positive nuclei fraction (MEL-HO) [%]
"NC(=O)c1ccc(N(C(N)=O)c2c(F)cccc2F)nc1-c1ccc(F)cc1F + Cn1c(Nc2ccc(C(F)(F)F)cc2)nc2cc(Oc3ccnc(-c4ncc(C(F)(F)F)[nH]4)c3)ccc21 [CHIR265] (first compound 0.4 µM, partner dose 0.08 µM)",41,167,197,115,124,189,123,72.6,131,111
"Cn1sc(=O)n(Cc2ccccc2)c1=O + Cc1cc(Nc2cc(N3CCN(C)CC3)nc(/C=C/c3ccccc3)n2)n[nH]1 [ENMD2076] (first compound 0.4 µM, partner dose 0.04 µM)",107,56,114,131,103,56.9,170,109,108,71.3
"C[C@]1(O)C[C@@H](c2nc(-c3ccc4ccc(-c5ccccc5)nc4c3)c3c(N)nccn32)C1 + Cc1nc(Nc2ncc(C(=O)Nc3c(C)cccc3Cl)s2)cc(N2CCN(CCO)CC2)n1 [dasatanib] (first compound 0.4 µM, partner dose 0.004 µM)",105,240,316,78.7,70.5,161,151,40.7,100,141
"CCN(CC)CCNC(=O)c1c(C)[nH]c(/C=C2\C(=O)Nc3ccc(F)cc32)c1C [sunitinib] + CCCS(=O)(=O)Nc1ccc(F)c(C(=O)c2c[nH]c3ncc(Cl)cc23)c1F [PLX4720] (first compound 0.4 µM, partner dose 0.08 µM)",66.8,61.8,240,74.4,107,87.4,68.7,306,135,38.4
"CS(=O)(=O)c1ccc(C(=O)Nc2ccc(Cl)c(-c3ccccn3)c2)c(Cl)c1 [vismodegib] + Nc1nc(F)nc2c1ncn2[C@@H]1O[C@H](CO)[C@@H](O)[C@@H]1O [fludarabine] (first compound 1 µM, partner dose 0.2 µM)",35.9,42.5,45.2,70.3,78.7,49,91.9,283,192,59.9
"COc1ccc(C2=N[C@@H](c3ccc(Cl)cc3)[C@@H](c3ccc(Cl)cc3)N2C(=O)N2CCNC(=O)C2)c(OC(C)C)c1 [Nutlin-3] + Nc1ncn([C@H]2C[C@H](O)[C@@H](CO)O2)c(=O)n1 [decitabine] (first compound 0.1 µM, partner dose 0.1 µM)",77.8,43.5,143,101,186,249,73.9,142,78.9,238
"CS(=O)(=O)c1ccc(C(=O)Nc2ccc(Cl)c(-c3ccccn3)c2)c(Cl)c1 [vismodegib] + O=C(O)[C@@H]1[O][Sb](=[O])([O][Sb]2(=[O])[O][C@H]([C@H](O)CO)[C@H](O)[C@H](C(=O)O)[O]2)[O][C@H]([C@H](O)CO)[C@@H]1O [stibogluconate] (first compound 1 µM, partner dose 2 µM)",108,143,46.5,43.7,78.6,44.7,90.4,89.5,78.5,51.8
"CCN(CC)CCNC(=O)c1c(C)[nH]c(/C=C2\C(=O)Nc3ccc(F)cc32)c1C [sunitinib] + CNC(=O)c1cc(Oc2ccc(NC(=O)Nc3ccc(Cl)c(C(F)(F)F)c3)cc2)ccn1 [sorafenib] (first compound 0.4 µM, partner dose 0.4 µM)",70.8,80.2,91.5,70.9,116,96,456,101,73.8,79.4
"NC1(c2ccc(-c3nc4ccn5c(=O)[nH]nc5c4cc3-c3ccccc3)cc2)CCC1 + COc1ccc(Cl)c(Nc2nc3ccccc3nc2NS(=O)(=O)c2cccc(NC(=O)C(C)(C)N)c2)c1 [XL147] (first compound 0.4 µM, partner dose 0.8 µM)",85,157,102,213,130,96.3,108,251,15.4,94.6
"C[C@@H](N)c1ccc(C(=O)Nc2ccnc3[nH]ccc23)cc1 + CC(C)C[C@H](NC(=O)[C@H](Cc1ccccc1)NC(=O)c1cnccn1)B(O)O [Bortezomib] (first compound 0.4 µM, partner dose 0.001 µM)",210,160,86.2,80,879,48.3,137,203,287,71.8
"CCCCCCCCc1ccc(CCC(N)(CO)CO)cc1 [fingolimod] + C[C@@H](Oc1cc(-c2cnn(C3CCNCC3)c2)cnc1N)c1c(Cl)ccc(F)c1Cl [Crizotinib] (first compound 2 µM, partner dose 0.2 µM)",147,67.8,90.8,180,111,56.4,55.4,127,105,74.3
"CS(=O)(=O)c1ccc(C(=O)Nc2ccc(Cl)c(-c3ccccn3)c2)c(Cl)c1 [vismodegib] + CN(c1ncccc1CNc1nc(Nc2ccc3c(c2)CC(=O)N3)ncc1C(F)(F)F)S(C)(=O)=O [PF562271] (first compound 1 µM, partner dose 0.08 µM)",120,54.5,100,79.1,167,88.5,121,87.5,181,128
"Cn1cnc2c(F)c(Nc3ccc(Br)cc3Cl)c(C(=O)NOCCO)cc21 [selumetinib] + COc1ccc(Cl)c(Nc2nc3ccccc3nc2NS(=O)(=O)c2cccc(NC(=O)C(C)(C)N)c2)c1 [XL147] (first compound 0.015 µM, partner dose 0.8 µM)",248,114,137,74.1,80.5,134,86.1,92.7,34.5,148
"C[C@@H](N)c1ccc(C(=O)Nc2ccnc3[nH]ccc23)cc1 + CC(=O)O[C@@]12CO[C@@H]1C[C@H](O)[C@@]1(C)C(=O)[C@H](O)C3=C(C)[C@@H](OC(=O)[C@H](O)[C@@H](NC(=O)OC(C)(C)C)c4ccccc4)C[C@@](O)([C@@H](OC(=O)c4ccccc4)[C@H]21)C3(C)C [Docetaxel] (first compound 0.4 µM, partner dose 0.0001 µM)",165,533,250,214,605,197,97.1,645,178,168
"Cn1cnc2c(F)c(Nc3ccc(Br)cc3Cl)c(C(=O)NOCCO)cc21 [selumetinib] + CS(=O)(=O)CCNCc1ccc(-c2ccc3ncnc(Nc4ccc(OCc5cccc(F)c5)c(Cl)c4)c3c2)o1 [lapatinib] (first compound 0.015 µM, partner dose 0.8 µM)",93,189,103,78.5,215,126,66.7,229,121,128
"CC1(C)CCC(c2ccc(Cl)cc2)=C(CN2CCN(c3ccc(C(=O)NS(=O)(=O)c4ccc(N[C@H](CCN5CCOCC5)CSc5ccccc5)c(S(=O)(=O)C(F)(F)F)c4)cc3)CC2)C1 + C[C@]1(O)C[C@@H](c2nc(-c3ccc4ccc(-c5ccccc5)nc4c3)c3c(N)nccn32)C1 [OSI906] (first compound 0.4 µM, partner dose 0.4 µM)",119,367,34.9,29.4,107,60.6,36.2,332,218,133
"C[C@]1(O)C[C@@H](c2nc(-c3ccc4ccc(-c5ccccc5)nc4c3)c3c(N)nccn32)C1 + Cc1cc(Nc2cc(N3CCN(C)CC3)nc(/C=C/c3ccccc3)n2)n[nH]1 [ENMD2076] (first compound 0.4 µM, partner dose 0.04 µM)",66,98.4,274,91.2,41.2,88.4,56.5,122,117,59.6
"C[C@@H](N)c1ccc(C(=O)Nc2ccnc3[nH]ccc23)cc1 + COCC[n+]1c2c(n(Cc3cnccn3)c1C)C(=O)c1ccccc1C2=O [YM155] (first compound 0.4 µM, partner dose 0.0004 µM)",34.8,79.5,73.9,110,123,87.2,59.8,81.7,143,118
"CS(=O)(=O)c1ccc(C(=O)Nc2ccc(Cl)c(-c3ccccn3)c2)c(Cl)c1 [vismodegib] + Cn1c(Nc2ccc(C(F)(F)F)cc2)nc2cc(Oc3ccnc(-c4ncc(C(F)(F)F)[nH]4)c3)ccc21 [CHIR265] (first compound 1 µM, partner dose 0.08 µM)",229,112,221,111,94.9,35.6,70.4,87.8,158,38.8
"CCCCCCCCc1ccc(CCC(N)(CO)CO)cc1 [fingolimod] + C=C(c1ccc(C(=O)O)cc1)c1cc2c(cc1C)C(C)(C)CCC2(C)C [Bexarotene] (first compound 2 µM, partner dose 2 µM)",128,97.6,44.6,109,119,45.5,87,194,124,87.2
"CC1(C)CCC(c2ccc(Cl)cc2)=C(CN2CCN(c3ccc(C(=O)NS(=O)(=O)c4ccc(N[C@H](CCN5CCOCC5)CSc5ccccc5)c(S(=O)(=O)C(F)(F)F)c4)cc3)CC2)C1 + COCC[n+]1c2c(n(Cc3cnccn3)c1C)C(=O)c1ccccc1C2=O [YM155] (first compound 0.4 µM, partner dose 0.0004 µM)",254,347,189,81.3,232,138,332,192,595,90

# Pulled one by one from the list above, 2 records:
Compound,cleaved PARP positive nuclei fraction (CBRC034) [%],cleaved PARP positive nuclei fraction (COLO792) [%],cleaved PARP positive nuclei fraction (COLO800) [%],cleaved PARP positive nuclei fraction (COLO829) [%],cleaved PARP positive nuclei fraction (G361) [%],cleaved PARP positive nuclei fraction (IPC-298) [%],cleaved PARP positive nuclei fraction (IST-MEL1) [%],cleaved PARP positive nuclei fraction (LB2518-MEL) [%],cleaved PARP positive nuclei fraction (LOXIMVI) [%],cleaved PARP positive nuclei fraction (MEL-HO) [%]
"NC1(c2ccc(-c3nc4ccn5c(=O)[nH]nc5c4cc3-c3ccccc3)cc2)CCC1 + COc1ccc(Cl)c(Nc2nc3ccccc3nc2NS(=O)(=O)c2cccc(NC(=O)C(C)(C)N)c2)c1 [XL147] (first compound 0.4 µM, partner dose 0.8 µM)",85,157,102,213,130,96.3,108,251,15.4,94.6
"CCCCCCCCc1ccc(CCC(N)(CO)CO)cc1 [fingolimod] + C[C@@H](Oc1cc(-c2cnn(C3CCNCC3)c2)cnc1N)c1c(Cl)ccc(F)c1Cl [Crizotinib] (first compound 2 µM, partner dose 0.2 µM)",147,67.8,90.8,180,111,56.4,55.4,127,105,74.3
